This assay addresses S100B protein (human) (UniProt P04271). Briefly: condition: only after extensive dialysis of 1 mg/mL protein against deionized water at pH 7 (low-salt S100B); native gel or EMSA; Coomassie-stained 16% native gel; low-salt S100B, 1 mg/mL protein solution extensively dialysed against deionized water at pH 7; both purified. In general terms: A gel shift assay detects complexes by their altered migration in electrophoresis.

These are yes or no findings as the source states them, for the method shown.

B1: S100B protein (natural protein, human)
chain: SELEKAMVALIDVFHQYSGREGDKHKLKKSELKELINNELSHFLEEIKEQEVVDKVMETLDNDGDGECDFQEFMAFVAMVTTACHEFFEHE
notes: S100B, Homo sapiens, UniProt P04271; Gene carried in the pETDuet-1 vector; The protein is a homodimer as purified; the monomer was obtained by extensive dialysis against deionized water; also called dimeric S100B; monomeric S100B; source: E. coli BL21-CodonPlus (DE3)-RIL, purified (ammonium sulfate, HiTrap Q XL anion exchange)
As for B1, the binding result is “no binding”.

The values are drawn from publication PMC12445344, “Influence of Calcium Ions on the Membrane Binding of S100B Protein” (Langmuir, 2025).
